The results in this text go back to paper PMC11077639.

Amino acid sequences for entries named in this document (tags omitted). Residues count along the entry.
UniProt Q13308, 31-1070: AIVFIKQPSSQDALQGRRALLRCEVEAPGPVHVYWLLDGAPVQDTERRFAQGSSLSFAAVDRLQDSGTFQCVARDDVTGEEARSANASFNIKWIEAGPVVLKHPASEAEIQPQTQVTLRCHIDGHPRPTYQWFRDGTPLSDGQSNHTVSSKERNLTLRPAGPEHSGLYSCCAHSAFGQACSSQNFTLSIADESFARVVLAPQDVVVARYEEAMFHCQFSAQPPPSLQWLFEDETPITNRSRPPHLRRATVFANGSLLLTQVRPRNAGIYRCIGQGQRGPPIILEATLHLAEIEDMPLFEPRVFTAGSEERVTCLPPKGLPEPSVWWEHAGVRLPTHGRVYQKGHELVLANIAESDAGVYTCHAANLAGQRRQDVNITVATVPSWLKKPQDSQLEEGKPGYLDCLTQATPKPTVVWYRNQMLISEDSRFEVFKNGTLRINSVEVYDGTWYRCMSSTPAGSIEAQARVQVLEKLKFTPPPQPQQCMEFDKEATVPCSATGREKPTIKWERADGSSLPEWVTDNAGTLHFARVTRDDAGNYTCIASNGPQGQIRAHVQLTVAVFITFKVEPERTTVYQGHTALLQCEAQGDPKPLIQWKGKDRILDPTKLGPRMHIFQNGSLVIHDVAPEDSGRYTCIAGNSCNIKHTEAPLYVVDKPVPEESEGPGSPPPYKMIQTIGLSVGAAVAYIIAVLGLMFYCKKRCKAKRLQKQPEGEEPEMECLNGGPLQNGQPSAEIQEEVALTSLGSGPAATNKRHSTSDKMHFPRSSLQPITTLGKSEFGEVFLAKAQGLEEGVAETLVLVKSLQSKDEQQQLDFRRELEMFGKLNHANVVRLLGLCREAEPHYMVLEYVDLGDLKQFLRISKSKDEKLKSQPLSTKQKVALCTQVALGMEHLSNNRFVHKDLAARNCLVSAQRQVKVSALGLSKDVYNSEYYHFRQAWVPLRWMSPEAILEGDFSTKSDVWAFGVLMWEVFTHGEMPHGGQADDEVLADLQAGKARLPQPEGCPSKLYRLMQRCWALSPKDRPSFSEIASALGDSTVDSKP
UniProt P08581, 25-1390: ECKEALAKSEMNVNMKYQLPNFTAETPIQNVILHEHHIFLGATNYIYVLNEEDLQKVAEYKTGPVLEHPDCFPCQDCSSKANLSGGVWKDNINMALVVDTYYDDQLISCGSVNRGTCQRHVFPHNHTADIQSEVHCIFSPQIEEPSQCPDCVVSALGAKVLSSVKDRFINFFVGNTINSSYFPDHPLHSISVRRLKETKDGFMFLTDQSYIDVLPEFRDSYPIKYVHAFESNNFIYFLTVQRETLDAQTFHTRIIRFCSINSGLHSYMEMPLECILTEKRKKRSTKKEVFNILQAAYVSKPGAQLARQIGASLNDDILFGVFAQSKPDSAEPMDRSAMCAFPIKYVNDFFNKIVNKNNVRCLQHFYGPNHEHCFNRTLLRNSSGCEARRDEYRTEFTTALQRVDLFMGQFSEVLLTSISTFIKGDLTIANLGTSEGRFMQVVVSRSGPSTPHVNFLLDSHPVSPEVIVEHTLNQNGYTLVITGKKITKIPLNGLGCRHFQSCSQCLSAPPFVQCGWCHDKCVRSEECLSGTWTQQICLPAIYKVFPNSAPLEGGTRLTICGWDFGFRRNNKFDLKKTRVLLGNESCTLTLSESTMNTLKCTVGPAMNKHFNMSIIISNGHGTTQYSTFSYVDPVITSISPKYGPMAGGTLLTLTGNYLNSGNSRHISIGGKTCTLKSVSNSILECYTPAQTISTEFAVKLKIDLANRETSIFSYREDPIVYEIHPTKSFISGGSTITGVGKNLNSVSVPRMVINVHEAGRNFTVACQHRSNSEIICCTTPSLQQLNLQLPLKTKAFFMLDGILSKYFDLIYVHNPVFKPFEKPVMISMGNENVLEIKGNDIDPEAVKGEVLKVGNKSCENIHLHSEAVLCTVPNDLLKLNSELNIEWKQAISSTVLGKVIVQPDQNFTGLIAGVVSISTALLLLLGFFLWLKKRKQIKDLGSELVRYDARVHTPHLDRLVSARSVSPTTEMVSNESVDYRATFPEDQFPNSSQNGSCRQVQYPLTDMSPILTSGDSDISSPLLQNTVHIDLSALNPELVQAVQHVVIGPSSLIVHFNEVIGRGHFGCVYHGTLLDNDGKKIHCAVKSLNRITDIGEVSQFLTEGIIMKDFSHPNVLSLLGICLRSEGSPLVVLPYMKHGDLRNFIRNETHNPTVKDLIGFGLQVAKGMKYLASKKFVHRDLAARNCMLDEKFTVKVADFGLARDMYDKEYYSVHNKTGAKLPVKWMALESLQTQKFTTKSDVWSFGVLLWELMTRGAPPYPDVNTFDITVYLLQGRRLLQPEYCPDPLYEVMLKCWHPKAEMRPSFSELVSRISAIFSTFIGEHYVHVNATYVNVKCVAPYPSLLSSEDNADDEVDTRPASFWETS

Data set [1] has as its target PTK7 (protein tyrosine kinase 7) on Jurkat cells (UniProt Q13308). The data set can be described thus: flow cytometry on cells. The following applies: Binding buffer: DPBS with CaCl2 and MgCl2, 4.5 g/L glucose, 5 mM MgCl2, 5 mg/mL HtDNA, 1 mg/mL BSA, 30 min on ice, about 5e5 cells in 200 uL, fit Y = Bmax X/(Kd + X), protein on the cell surface, label: 3' FAM, single-stranded DNA. On the technique in general: In flow cytometry, cells or beads pass a laser one at a time.

In data set [2] the target is Met (hepatocyte growth factor receptor) on MDA-MB-231 cells (UniProt P08581). The data set can be described thus: flow cytometry on cells. The following applies: MDA-MB-231 cells, value only in figure, Binding buffer: DPBS with CaCl2 and MgCl2, 4.5 g/L glucose, 5 mM MgCl2, 5 mg/mL HtDNA, 1 mg/mL BSA, 30 min on ice, about 5e5 cells in 200 uL, fit Y = Bmax X/(Kd + X), protein on the cell surface, label: 3' FAM, single-stranded DNA.

[3] abbreviates: Jurkat cells, Kd not significantly changed vs free Sgc8, value only in figure, 5' azide coupled to DBCO-streptavidin carrying bpM6P.

For at least one entry, the source does not settle the construct or the ends of the probe. Results from cells or extracts need not show a direct contact. At least one verdict rests on a figure or table, not on a statement of the authors.

With “AAAAATCTAACTGCTGCGCCGCCGGGAAAATACTGTACGGTTAGA [FAM-Sgc8-SA (SA:Sgc8 = 1:3)]”, the binding result in data set [1] (100 nM, Jurkat vs PTK7-negative Ramos, 5' azide coupled to DBCO-streptavidin, about 3 aptamers per SA) was “binds”.
Turning to “AAAAATCTAACTGCTGCGCCGCCGGGAAAATACTGTACGGTTAGA [FAM-Sgc8]”, the binding result in data set [1] (Jurkat cells, Kd shown only in figure, 5' azide (N3)) is reported as “binds”.
Turning to “AAAAATCTAACTGCTGCGCCGCCGGGAAAATACTGTACGGTTAGA [FAM-bpM6P-Sgc8-SA (SA:Sgc8 = 1:1)]”, the binding result in data set [1] (setting [3]) was “binds”.
In the case of “AAAAATCTAACTGCTGCGCCGCCGGGAAAATACTGTACGGTTAGA [FAM-bpM6P-Sgc8-SA (SA:Sgc8 = 1:3)]”, the binding result in data set [1] (setting [3]) is reported as “binds”.
In the case of “AAAAATCTAACTGCTGCGCCGCCGGGAAAATACTGTACGGTTAGA [FAM-bpM6P-Sgc8-SA (SA:Sgc8 = 1:5)]”, in data set [1] (setting [3]), the binding result was “binds”.
As for “AAAAATCTAACTGCTGCGCCGCCGGGAAAATACTGTACGGTTAGA [FAM-bpM6P-Sgc8-SA (SA:Sgc8 = 1:7)]”, the binding result in data set [1] (setting [3]) is listed as “binds”.
Take “ATCAGGCTGGATGGTAGCTCGGTCGGGGTGGGTGGGTTGGCAAGTCTGAT [FAM-SL1]”: the binding result in data set [2] (5' azide (N3)) is “binds”.
On to “ATCAGGCTGGATGGTAGCTCGGTCGGGGTGGGTGGGTTGGCAAGTCTGAT [FAM-bpM6P-SL1-SA (SA:SL1 = 1:3)]”, for which the binding result in data set [2] (5' azide coupled to DBCO-streptavidin carrying bpM6P) is “binds”.
